From the supplement of paper PMC8728848
The other results are listed elsewhere or left out.

How the values were obtained:
Experiment in all cases: glycan array binding signal (z-score within array); higher = stronger binding
Settings in all cases: glycan notation: IUPAC condensed, linker removed
[1] = target: Fuc(a1-3)[Gal(b1-4)]GlcNAc(b1-3)Gal(b1-3)[Fuc(a1-4)]GlcNAc
Method in brief: (§1)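 Glycan array binding is given as a within-array Z-score, which can be read as non-binding when negative. The arrays, 3228 of them, came from the Consortium for Functional Glycomics database and were retained only where the protein sequence was available. Z-scores were averaged across arrays of the same protein sequence at different concentrations or buffers and across linkers.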

[2] = target: Fuc(a1-3)[Gal(b1-4)]GlcNAc(b1-3)Gal(b1-4)[Fuc(a1-3)]GlcNAc
Method in brief: as §1

[3] = target: Fuc(a1-3)[Gal(b1-4)]GlcNAc(b1-3)Gal(b1-4)[Fuc(a1-3)]GlcNAc(b1-3)Gal(b1-4)[Fuc(a1-3)]GlcNAc
Method in brief: as §1

[4] = target: Fuc(a1-3)[Gal(b1-4)]GlcNAc(b1-3)GalNAc
Method in brief: as §1

[5] = target: Fuc(a1-3)[Gal(b1-4)]GlcNAc(b1-6)GalNAc
Method in brief: as §1

[6] = target: Fuc(a1-3)[Gal(b1-4)]GlcNAc(b1-6)[Gal(b1-3)GlcNAc(b1-3)]Gal(b1-4)Glc
Method in brief: as §1

[7] = target: Fuc(a1-3)[Gal(b1-4)]GlcNAc6S
Method in brief: as §1

[8] = target: Fuc(a1-3)[Gal3S(b1-4)]Glc
Method in brief: as §1

[9] = target: Fuc(a1-3)[Gal3S(b1-4)]GlcNAc
Method in brief: as §1

[10] = target: Fuc(a1-3)[Gal3S(b1-4)]GlcNAc6S
Method in brief: as §1

[11] = target: Fuc(a1-3)[GalNAc(b1-4)]GlcNAc
Method in brief: as §1

[12] = target: Fuc(a1-3)[GalNAc(b1-4)]GlcNAc6S
Method in brief: as §1

Fuc(a1-4)GlcNAc = target: Fuc(a1-4)GlcNAc
Method in brief: as §1

Fuc(b1-3)GlcNAc = target: Fuc(b1-3)GlcNAc
Method in brief: as §1

Gal(a1-2)Gal = target: Gal(a1-2)Gal
Method in brief: as §1

Gal(a1-3)Gal = target: Gal(a1-3)Gal
Method in brief: as §1

Gal(a1-3)Gal(b1-3)GlcNAc = target: Gal(a1-3)Gal(b1-3)GlcNAc
Method in brief: as §1

[13] = target: Gal(a1-3)Gal(b1-3)GlcNAc(b1-2)Man
Method in brief: as §1

[14] = target: Gal(a1-3)Gal(b1-3)GlcNAc(b1-2)Man(a1-3)[Gal(a1-3)Gal(b1-3)GlcNAc(b1-2)Man(a1-6)]Man(b1-4)GlcNAc(b1-4)GlcNAc
Method in brief: as §1

[15] = target: Gal(a1-3)Gal(b1-3)GlcNAc(b1-3)GalNAc
Method in brief: as §1

[16] = target: Gal(a1-3)Gal(b1-3)GlcNAc(b1-6)GalNAc
Method in brief: as §1

[17] = target: Gal(a1-3)Gal(b1-3)[Fuc(a1-4)]GlcNAc(b1-2)Man(a1-3)[Gal(a1-3)Gal(b1-3)[Fuc(a1-4)]GlcNAc(b1-2)Man(a1-6)]Man(b1-4)GlcNAc(b1-4)GlcNAc
Method in brief: as §1

Gal(a1-3)Gal(b1-4)Glc = target: Gal(a1-3)Gal(b1-4)Glc
Method in brief: as §1

Gal(a1-3)Gal(b1-4)GlcNAc = target: Gal(a1-3)Gal(b1-4)GlcNAc
Method in brief: as §1

[18] = target: Gal(a1-3)Gal(b1-4)GlcNAc(b1-2)Man
Method in brief: as §1

[19] = target: Gal(a1-3)Gal(b1-4)GlcNAc(b1-2)Man(a1-3)[Gal(a1-3)Gal(b1-4)GlcNAc(b1-2)Man(a1-6)]Man(b1-4)GlcNAc(b1-4)GlcNAc
Method in brief: as §1

[20] = target: Gal(a1-3)Gal(b1-4)GlcNAc(b1-3)GalNAc
Method in brief: as §1

[21] = target: Gal(a1-3)Gal(b1-4)GlcNAc(b1-6)GalNAc
Method in brief: as §1

[22] = target: Gal(a1-3)Gal(b1-4)[Fuc(a1-3)]GlcNAc
Method in brief: as §1

[23] = target: Gal(a1-3)Gal(b1-4)[Fuc(a1-3)]GlcNAc(b1-2)Man(a1-3)[Gal(a1-3)Gal(b1-4)[Fuc(a1-3)]GlcNAc(b1-2)Man(a1-6)]Man(b1-4)GlcNAc(b1-4)GlcNAc
Method in brief: as §1

Gal(a1-3)GalNAc = target: Gal(a1-3)GalNAc
Method in brief: as §1

[24] = target: Gal(a1-3)[Gal(a1-4)]Gal(b1-4)GlcNAc
Method in brief: as §1

[25] = target: Gal(a1-4)Gal(b1-3)GlcNAc(b1-2)Man(a1-3)[Gal(a1-4)Gal(b1-3)GlcNAc(b1-2)Man(a1-6)]Man(b1-4)GlcNAc(b1-4)GlcNAc
Method in brief: as §1

Gal(a1-4)Gal(b1-4)Glc = target: Gal(a1-4)Gal(b1-4)Glc
Method in brief: as §1

Gal(a1-4)Gal(b1-4)GlcNAc = target: Gal(a1-4)Gal(b1-4)GlcNAc
Method in brief: as §1

[26] = target: Gal(a1-4)Gal(b1-4)GlcNAc(b1-2)Man(a1-3)[Gal(a1-4)Gal(b1-4)GlcNAc(b1-2)Man(a1-6)]Man(b1-4)GlcNAc(b1-4)GlcNAc
Method in brief: as §1

[27] = target: Gal(a1-4)Gal(b1-4)GlcNAc(b1-3)Gal(b1-4)Glc
Method in brief: as §1

Gal(a1-4)GlcNAc = target: Gal(a1-4)GlcNAc
Method in brief: as §1

B1: LlpA (Burkholderia cenocepacia) (protein)
chain: MGSSHHHHHHSSGLVPRGSHKILGSNETLSAGNVVYSDNGQYHLAMQTDGNLVVYGPTGAVWQSQTSGSGGNRAVMQGDGNLVIYRADNTAAWSSKTAHPGAFLAVQDDGNVVIYWPRPAWASNTSDPATQQSAESKYLASGSTMSAGQTVTVAQYMLVFQADGNLVLYKNGGNPIWSTGTQGKGATYAVMQSDGNFVIYAGSTALWSTKTNGANGAQLVLQSDGNLVIYAPTAAWSTKFGLVTAPTSTSTSNNGPGSGICVGVCPPHPLNGNPFSPVGVGTTGLGFPTPGYPGAAF
Q: Which “glycan array binding signal (z-score)” value [1] does the source give for B1 here?
A: -0.813

Q: And the “glycan array binding signal (z-score)” value [2]?
A: 0.798

Q: And the “glycan array binding signal (z-score)” value [3]?
A: -0.408

Q: What about the “glycan array binding signal (z-score)” value [4] of the same binder?
A: 0.159

Q: What about the “glycan array binding signal (z-score)” value [5] of the same binder?
A: 0.339

Q: And the “glycan array binding signal (z-score)” value [6]?
A: -0.198

Q: And the “glycan array binding signal (z-score)” value [7]?
A: 1.66

Q: And the “glycan array binding signal (z-score)” value [8]?
A: 1.2

Q: What about the “glycan array binding signal (z-score)” value [9] of the same binder?
A: 0.681

Q: And the “glycan array binding signal (z-score)” value [10]?
A: 0.228

Q: And the “glycan array binding signal (z-score)” value [11]?
A: 0.5

Q: And the “glycan array binding signal (z-score)” value [12]?
A: 0.011

Q: And the “glycan array binding signal (z-score)” value (Fuc(a1-4)GlcNAc)?
A: 1.59

Q: And the “glycan array binding signal (z-score)” value (Fuc(b1-3)GlcNAc)?
A: -0.204

Q: And the “glycan array binding signal (z-score)” value (Gal(a1-2)Gal)?
A: -0.358

Q: And the “glycan array binding signal (z-score)” value (Gal(a1-3)Gal)?
A: -0.213

Q: And the “glycan array binding signal (z-score)” value (Gal(a1-3)Gal(b1-3)GlcNAc)?
A: -0.246

Q: What about the “glycan array binding signal (z-score)” value [13] of the same binder?
A: 0.249

Q: What about the “glycan array binding signal (z-score)” value [14] of the same binder?
A: 0.408

Q: And the “glycan array binding signal (z-score)” value [15]?
A: -1.16

Q: What about the “glycan array binding signal (z-score)” value [16] of the same binder?
A: 0.173

Q: What about the “glycan array binding signal (z-score)” value [17] of the same binder?
A: 1.1

Q: What about the “glycan array binding signal (z-score)” value (Gal(a1-3)Gal(b1-4)Glc) of the same binder?
A: -0.106

Q: And the “glycan array binding signal (z-score)” value (Gal(a1-3)Gal(b1-4)GlcNAc)?
A: 0.127

Q: What about the “glycan array binding signal (z-score)” value [18] of the same binder?
A: -0.491

Q: What about the “glycan array binding signal (z-score)” value [19] of the same binder?
A: 0.427

Q: And the “glycan array binding signal (z-score)” value [20]?
A: -0.196

Q: And the “glycan array binding signal (z-score)” value [21]?
A: 0.692

Q: And the “glycan array binding signal (z-score)” value [22]?
A: 0.698

Q: What about the “glycan array binding signal (z-score)” value [23] of the same binder?
A: -0.583

Q: What about the “glycan array binding signal (z-score)” value (Gal(a1-3)GalNAc) of the same binder?
A: -0.618

Q: What about the “glycan array binding signal (z-score)” value [24] of the same binder?
A: 0.304

Q: What about the “glycan array binding signal (z-score)” value [25] of the same binder?
A: 1.58

Q: And the “glycan array binding signal (z-score)” value (Gal(a1-4)Gal(b1-4)Glc)?
A: 0.481

Q: What about the “glycan array binding signal (z-score)” value (Gal(a1-4)Gal(b1-4)GlcNAc) of the same binder?
A: 0.401

Q: What about the “glycan array binding signal (z-score)” value [26] of the same binder?
A: 0.192

Q: What about the “glycan array binding signal (z-score)” value [27] of the same binder?
A: 0.212

Q: What about the “glycan array binding signal (z-score)” value (Gal(a1-4)GlcNAc) of the same binder?
A: -0.701
